# From patent US12419900B2, “Induction of synthetic lethality with epigenetic therapy” (The Johns Hopkins University, priority 2017, dated 2025)
# Some of these results come from one statement about several compounds together.
# Tested on: DU145 xenograft tumor
# Assay: In vivo xenograft study of DU145, decitabine and alisertib
# Set-up: species or system nude mice
# Details: single agents: decitabine only, high- and low-dose alisertib only
# Procedure: Using in vivo xenograft studies of the DU145 prostate cancer cell line, the effect was explored of the treatment of two dose levels of alisertib alone or in combination with decitabine using two different treatment time schedules over a period of seven weeks. First, nude mice were inoculated with DU145 cells that were allowed to incubate for 10-12 days to establish xenograft tumor. The inoculated mice were then treated concomitantly with both a high dose and a low dose of alisertib and decitabine in the first two weeks or primed with decitabine alone for two weeks followed by alisertib alone in the first cycle. The dose of decitabine was held constant at 0.75 mg/kg and given with either low-dose (15 mg/kg) or high-dose (25 mg/kg) alisertib, as indicated in FIG. 4. The cumulative number of doses of decitabine and alisertib was the same in all combination treatment arms in both schedules.
compound,measurement,value
COc1cc(Nc2ncc3c(n2)-c2ccc(Cl)cc2C(c2c(F)cccc2OC)=NC3)ccc1C(=O)O [alisertib],mean survival post-inoculation,less than 40 days
